The list shows a part of the results.
Experiments:
Assay in all cases: log2 fold change, soluble protein after heating vs DMSO (PISA); higher = thermal stabilisation; K562 lysate, 10 uM; active = over 0.2 and 3.5 SD of the protein, either way, in both replicates (recomputed)
ibrutinib = compound: C=CC(=O)N1CCC[C@@H](n2nc(-c3ccc(Oc4ccccc4)cc3)c3c(N)ncnc32)C1 [ibrutinib]
Procedure, shortened: (§1)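 To prepare the extract, K562 pellets were dounce-homogenised in PBS pH 7.4 with 1 mM MgCl2, giving crude material at 1 mg/mL protein. This was treated with 10 μM compound for 30 min, then heated in aliquots for 3 min over 48°C-58°C before pooling and addition of NP-40 to 0.5% at 4°C. Centrifugation at 21,000xg for 90 min left soluble protein in the supernatant, which TMTpro 16plex LC-MS/MS quantified with equalised channel sums. Results are log-two fold changes in thermal stability compared with solvent controls, from duplicates.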

Amino acid sequences for entries named in this document (tags omitted). A change or cut given only in a name is not applied to a line headed by its entry.
UniProt O75818: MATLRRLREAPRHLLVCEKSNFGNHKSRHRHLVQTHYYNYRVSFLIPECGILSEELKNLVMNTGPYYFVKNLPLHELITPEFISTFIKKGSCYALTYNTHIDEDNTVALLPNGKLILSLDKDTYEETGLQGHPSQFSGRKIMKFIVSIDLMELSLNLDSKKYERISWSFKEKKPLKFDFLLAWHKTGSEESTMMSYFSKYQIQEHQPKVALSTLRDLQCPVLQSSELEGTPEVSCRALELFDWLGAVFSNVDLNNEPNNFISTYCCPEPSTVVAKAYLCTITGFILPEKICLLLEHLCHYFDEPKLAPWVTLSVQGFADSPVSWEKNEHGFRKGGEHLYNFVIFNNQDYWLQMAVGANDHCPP
UniProt Q15050: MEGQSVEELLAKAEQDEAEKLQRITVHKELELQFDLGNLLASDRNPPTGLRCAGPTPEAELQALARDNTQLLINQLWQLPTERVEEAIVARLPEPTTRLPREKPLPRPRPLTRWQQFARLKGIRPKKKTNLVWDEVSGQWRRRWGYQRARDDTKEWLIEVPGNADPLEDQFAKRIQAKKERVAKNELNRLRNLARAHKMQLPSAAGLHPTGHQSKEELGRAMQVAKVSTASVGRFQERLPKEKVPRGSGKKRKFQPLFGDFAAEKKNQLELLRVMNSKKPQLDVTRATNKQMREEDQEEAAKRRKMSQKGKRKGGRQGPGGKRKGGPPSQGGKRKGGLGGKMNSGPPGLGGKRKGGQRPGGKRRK
UniProt O95197: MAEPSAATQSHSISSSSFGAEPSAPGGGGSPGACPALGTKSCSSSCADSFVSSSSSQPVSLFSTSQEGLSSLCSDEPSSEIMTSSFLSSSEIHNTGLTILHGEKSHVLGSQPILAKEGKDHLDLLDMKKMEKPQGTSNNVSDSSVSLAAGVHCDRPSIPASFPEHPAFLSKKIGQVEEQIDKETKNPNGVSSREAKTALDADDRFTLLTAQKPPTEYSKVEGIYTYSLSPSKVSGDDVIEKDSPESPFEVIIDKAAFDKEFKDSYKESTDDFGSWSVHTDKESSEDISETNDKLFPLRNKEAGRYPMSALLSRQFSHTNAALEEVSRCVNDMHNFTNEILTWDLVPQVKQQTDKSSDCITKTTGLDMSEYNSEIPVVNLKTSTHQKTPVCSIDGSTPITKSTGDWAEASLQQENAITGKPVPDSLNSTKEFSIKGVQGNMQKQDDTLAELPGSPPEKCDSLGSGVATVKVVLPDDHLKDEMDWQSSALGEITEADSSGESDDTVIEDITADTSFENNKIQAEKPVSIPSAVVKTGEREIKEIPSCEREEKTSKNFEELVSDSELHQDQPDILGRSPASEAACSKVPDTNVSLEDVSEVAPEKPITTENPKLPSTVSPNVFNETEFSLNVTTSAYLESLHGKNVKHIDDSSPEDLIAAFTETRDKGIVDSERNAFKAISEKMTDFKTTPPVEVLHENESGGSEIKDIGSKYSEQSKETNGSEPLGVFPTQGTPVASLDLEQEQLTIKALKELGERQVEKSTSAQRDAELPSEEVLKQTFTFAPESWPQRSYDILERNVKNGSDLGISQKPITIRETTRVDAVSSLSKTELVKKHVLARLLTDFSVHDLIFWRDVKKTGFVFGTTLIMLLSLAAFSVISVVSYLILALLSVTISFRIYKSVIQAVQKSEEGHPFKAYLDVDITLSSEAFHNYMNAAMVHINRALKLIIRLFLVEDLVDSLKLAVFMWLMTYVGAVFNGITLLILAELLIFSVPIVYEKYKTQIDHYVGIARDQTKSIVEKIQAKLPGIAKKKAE
UniProt Q5VT52: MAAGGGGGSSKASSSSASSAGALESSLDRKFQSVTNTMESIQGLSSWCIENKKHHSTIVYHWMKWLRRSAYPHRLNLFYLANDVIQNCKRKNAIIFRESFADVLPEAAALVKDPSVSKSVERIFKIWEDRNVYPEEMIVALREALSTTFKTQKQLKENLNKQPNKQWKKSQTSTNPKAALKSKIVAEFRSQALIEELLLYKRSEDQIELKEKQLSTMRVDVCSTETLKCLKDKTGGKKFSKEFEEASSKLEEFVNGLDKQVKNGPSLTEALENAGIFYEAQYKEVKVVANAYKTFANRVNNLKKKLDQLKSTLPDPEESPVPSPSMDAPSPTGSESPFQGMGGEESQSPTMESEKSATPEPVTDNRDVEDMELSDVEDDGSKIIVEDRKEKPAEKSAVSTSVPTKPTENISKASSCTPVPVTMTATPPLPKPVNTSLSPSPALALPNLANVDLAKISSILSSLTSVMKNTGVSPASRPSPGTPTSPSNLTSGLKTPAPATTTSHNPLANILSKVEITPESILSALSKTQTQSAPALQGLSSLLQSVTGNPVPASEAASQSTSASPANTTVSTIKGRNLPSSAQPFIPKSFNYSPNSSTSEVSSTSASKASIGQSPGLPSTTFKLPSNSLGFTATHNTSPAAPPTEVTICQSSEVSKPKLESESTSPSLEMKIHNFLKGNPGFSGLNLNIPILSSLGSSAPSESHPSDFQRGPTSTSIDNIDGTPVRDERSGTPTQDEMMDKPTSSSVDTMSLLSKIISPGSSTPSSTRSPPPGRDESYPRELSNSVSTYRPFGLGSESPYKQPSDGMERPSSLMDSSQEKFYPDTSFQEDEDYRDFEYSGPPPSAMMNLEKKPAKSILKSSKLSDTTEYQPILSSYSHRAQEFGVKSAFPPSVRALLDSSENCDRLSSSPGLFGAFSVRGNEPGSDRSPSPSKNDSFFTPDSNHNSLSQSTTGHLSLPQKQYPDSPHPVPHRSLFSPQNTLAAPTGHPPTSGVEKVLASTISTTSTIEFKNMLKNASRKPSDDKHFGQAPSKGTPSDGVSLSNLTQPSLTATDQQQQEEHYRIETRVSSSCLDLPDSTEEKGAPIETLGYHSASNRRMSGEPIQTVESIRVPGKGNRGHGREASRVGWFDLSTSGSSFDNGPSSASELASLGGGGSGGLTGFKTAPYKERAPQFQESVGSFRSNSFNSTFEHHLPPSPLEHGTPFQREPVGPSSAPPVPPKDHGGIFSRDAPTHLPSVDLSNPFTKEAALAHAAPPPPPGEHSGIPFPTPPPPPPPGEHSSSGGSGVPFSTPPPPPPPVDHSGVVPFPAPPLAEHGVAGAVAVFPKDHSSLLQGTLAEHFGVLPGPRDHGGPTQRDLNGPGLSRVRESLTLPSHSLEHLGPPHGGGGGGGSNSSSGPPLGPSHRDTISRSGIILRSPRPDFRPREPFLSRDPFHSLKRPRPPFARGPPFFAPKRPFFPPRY
UniProt P23443: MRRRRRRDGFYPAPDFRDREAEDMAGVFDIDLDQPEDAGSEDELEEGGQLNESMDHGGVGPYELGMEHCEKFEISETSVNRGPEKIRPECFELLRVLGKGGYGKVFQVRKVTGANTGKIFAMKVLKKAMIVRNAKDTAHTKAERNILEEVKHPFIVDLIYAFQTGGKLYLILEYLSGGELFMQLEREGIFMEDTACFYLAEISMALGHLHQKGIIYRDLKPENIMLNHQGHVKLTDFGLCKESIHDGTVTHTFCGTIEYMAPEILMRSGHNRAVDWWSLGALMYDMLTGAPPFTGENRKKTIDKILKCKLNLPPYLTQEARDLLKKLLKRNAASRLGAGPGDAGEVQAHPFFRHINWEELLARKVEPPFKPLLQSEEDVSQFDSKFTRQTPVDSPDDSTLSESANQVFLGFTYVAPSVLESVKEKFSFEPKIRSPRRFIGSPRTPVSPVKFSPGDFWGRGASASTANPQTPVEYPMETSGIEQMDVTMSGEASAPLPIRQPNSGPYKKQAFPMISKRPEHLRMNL
UniProt Q9Y3I0: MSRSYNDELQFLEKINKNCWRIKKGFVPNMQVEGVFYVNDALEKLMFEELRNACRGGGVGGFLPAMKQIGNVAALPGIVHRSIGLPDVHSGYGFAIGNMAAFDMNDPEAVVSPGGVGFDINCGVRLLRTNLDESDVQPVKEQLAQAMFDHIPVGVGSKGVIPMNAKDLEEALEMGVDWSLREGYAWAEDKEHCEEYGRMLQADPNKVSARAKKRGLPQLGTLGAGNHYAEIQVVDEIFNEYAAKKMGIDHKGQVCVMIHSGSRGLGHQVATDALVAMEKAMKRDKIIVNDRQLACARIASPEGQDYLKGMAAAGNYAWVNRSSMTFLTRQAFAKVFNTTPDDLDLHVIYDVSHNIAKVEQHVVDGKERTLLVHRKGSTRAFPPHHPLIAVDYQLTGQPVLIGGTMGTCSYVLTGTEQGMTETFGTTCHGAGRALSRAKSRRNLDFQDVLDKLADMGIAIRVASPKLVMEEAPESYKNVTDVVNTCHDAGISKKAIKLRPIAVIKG
UniProt Q9NQG5: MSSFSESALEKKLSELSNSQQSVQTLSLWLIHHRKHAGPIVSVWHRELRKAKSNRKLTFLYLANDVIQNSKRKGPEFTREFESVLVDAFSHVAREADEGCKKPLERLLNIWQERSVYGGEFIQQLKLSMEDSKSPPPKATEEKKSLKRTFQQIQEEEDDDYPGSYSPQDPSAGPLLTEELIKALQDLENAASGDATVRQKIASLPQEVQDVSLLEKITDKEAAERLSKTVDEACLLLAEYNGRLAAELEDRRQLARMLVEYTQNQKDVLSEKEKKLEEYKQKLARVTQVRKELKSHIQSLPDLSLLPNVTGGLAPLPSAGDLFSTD
UniProt P05386, whole entry, looked up: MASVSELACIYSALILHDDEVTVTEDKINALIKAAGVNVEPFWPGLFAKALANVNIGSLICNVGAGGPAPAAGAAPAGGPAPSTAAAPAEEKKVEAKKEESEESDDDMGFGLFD

[1] = compound: CC(=O)c1cnc2ccc(-c3cc(Cl)c(O)c(Cl)c3)nc2c1N[C@H]1CC[C@H](CN(C)C)CC1
Procedure, shortened: as §1

ralimetinib = compound: CC(C)(C)Cn1c(N)nc2ccc(-c3[nH]c(C(C)(C)C)nc3-c3ccc(F)cc3)nc21 [ralimetinib]
Procedure, shortened: as §1

[2] = compound: CC(C)(O)CC(=O)NCCn1ccc2ncnc(Nc3ccc(Oc4cccc(C(F)(F)F)c4)c(Cl)c3)c21
Procedure, shortened: as §1

[3] = compound: CC(C)C1=C2N=C(C=C(N2N=C1)NCC3=CC=CC=C3)NCCCCCCN
Procedure, shortened: as §1

[4] = compound: CC1=C(C(CC(=O)N1)C2=CC=C(C=C2)C(F)(F)F)C(=O)NC3=C(C=C4C(=C3)C=NN4)F
Procedure, shortened: as §1

[5] = compound: CC1=C(C2=C(C=C1)C(=O)C3=CC=CC=C3N2CCCN)C
Procedure, shortened: as §1

[6] = compound: CC1=C(C=C(C=C1)NC(=O)C2=CC(=CC=C2)C(C)(C)C#N)NC3=CC4=C(C=C3)N=CN(C4=O)C
Procedure, shortened: as §1

[7] = compound: CC1=C(C=C(C=C1)NC(=O)C2=CC(=CC=C2)N(C)C)NC(=O)C3=CC=C(C=C3)O
Procedure, shortened: as §1

[8] = compound: CC1=CC=C(C=C1)SC2=C3C=C(SC3=CN=C2)C(=O)N
Procedure, shortened: as §1

vemurafenib = compound: CCCS(=O)(=O)Nc1ccc(F)c(C(=O)c2c[nH]c3ncc(-c4ccc(Cl)cc4)cc23)c1F [vemurafenib]
Procedure, shortened: as §1

[9] = compound: CCCS(=O)(=O)Nc1ccc(F)c(C(=O)c2c[nH]c3ncc(Cl)cc23)c1F
Procedure, shortened: as §1

barasertib = compound: CCN(CCCOc1ccc2c(Nc3cc(CC(=O)Nc4cccc(F)c4)[nH]n3)ncnc2c1)CCOP(=O)(O)O [barasertib]
Procedure, shortened: as §1

[10] = compound: CC[C@@H]1C(=O)N(C)c2cnc(Nc3ccc(C(=O)NC4CCN(C)CC4)cc3OC)nc2N1C1CCCC1
Procedure, shortened: as §1

volasertib = compound: CC[C@@H]1C(=O)N(C)c2cnc(Nc3ccc(C(=O)N[C@H]4CC[C@H](N5CCN(CC6CC6)CC5)CC4)cc3OC)nc2N1C(C)C [volasertib]
Procedure, shortened: as §1

[11] = compound: CCn1c(C(=O)N(C2CC2)C2CC2)cc2c3c(ncn3C)c(Nc3cc(C)n(C)n3)nc21
Procedure, shortened: as §1

[12] = compound: CCn1cc(-c2ccnc3[nH]c(-c4cccc(CN(C)C)c4)cc23)c(-c2ccc(NC(=O)N(C)C)cc2)n1
Procedure, shortened: as §1

[13] = compound: CN1CCC(CNc2ccc3ncc(-c4cccc(OC(F)(F)F)c4)n3n2)CC1
Procedure, shortened: as §1

saracatinib = compound: CN1CCN(CCOc2cc(OC3CCOCC3)c3c(Nc4c(Cl)ccc5c4OCO5)ncnc3c2)CC1 [saracatinib]
Procedure, shortened: as §1

sotrastaurin = compound: CN1CCN(c2nc(C3=C(c4c[nH]c5ccccc45)C(=O)NC3=O)c3ccccc3n2)CC1 [sotrastaurin]
Procedure, shortened: as §1

Target | log2 fold change (ibrutinib) | log2 fold change [1] | log2 fold change (ralimetinib) | log2 fold change [2] | log2 fold change [3] | log2 fold change [4] | log2 fold change [5] | log2 fold change [6] | log2 fold change [7] | log2 fold change [8] | log2 fold change (vemurafenib) | log2 fold change [9] | log2 fold change (barasertib) | log2 fold change [10] | log2 fold change (volasertib) | log2 fold change [11] | log2 fold change [12] | log2 fold change [13] | log2 fold change (saracatinib) | log2 fold change (sotrastaurin)
RPL9 (UniProt P32969) | inactive: -0.018 | inactive: 0.007 | inactive: 0.027 | inactive: 0.007 | inactive: 0.035 | inactive: 0.01 | inactive: -0.013 | inactive: -0.008 | inactive: 0.01 | inactive: 0.017 | inactive: -0.011 | inactive: 0.007 | inactive: -0.027 | inactive: -0.005 | inactive: 0.003 | inactive: -0.039 | inactive: 0.028 | inactive: -0.055 | inactive: -0.001 | inactive: -0.049
RPS19 (UniProt P39019) | inactive: -0.004 | inactive: 0.013 | inactive: 0.002 | inactive: -0.003 | inactive: 0.029 | inactive: -0.03 | inactive: -0.008 | inactive: -0.026 | inactive: -0.01 | inactive: 0.021 | inactive: -0.027 | inactive: -0.011 | inactive: -0.02 | inactive: -0.01 | inactive: 0.017 | inactive: -0.001 | inactive: 0.063 | inactive: -0.047 | inactive: -0.002 | inactive: 0.012
RPP40 (UniProt O75818) | inactive: 0.003 | inactive: 0.007 | inactive: 0.023 | inactive: 0.019 | inactive: -0.029 | inactive: 0.007 | inactive: -0.005 | inactive: -0.009 | inactive: -0.02 | inactive: 0.004 | inactive: -0.001 | inactive: 0.011 | inactive: -0.019 | inactive: -0.042 | inactive: 0.002 | inactive: 0.043 | inactive: 0.024 | inactive: -0.012 | inactive: -0.024 | inactive: 0.006
RPS5 (UniProt P46782) | inactive: 0.012 | inactive: 0 | inactive: -0.017 | inactive: -0.013 | inactive: 0.017 | inactive: -0.006 | inactive: -0.015 | inactive: -0.038 | inactive: -0.012 | inactive: 0.036 | inactive: -0.014 | inactive: 0.017 | inactive: -0.038 | inactive: -0.01 | inactive: -0.026 | inactive: 0.011 | inactive: 0.026 | inactive: -0.023 | inactive: -0.017 | inactive: -0.047
RPL39P5 (UniProt Q59GN2) | inactive: -0.021 | inactive: -0.051 | inactive: 0.017 | inactive: -0.066 | inactive: -0.049 | inactive: 0.002 | inactive: 0.01 | inactive: 0 | inactive: 0.001 | inactive: 0.018 | inactive: -0.023 | inactive: 0.018 | inactive: -0.098 | inactive: 0.073 | inactive: 0.035 | inactive: 0 | inactive: -0.045 | inactive: 0.03 | inactive: -0.024 | inactive: 0.042
RPL38 (UniProt P63173) | inactive: -0.014 | inactive: -0.013 | inactive: -0.028 | inactive: -0.034 | inactive: 0.011 | inactive: -0.015 | inactive: 0 | inactive: -0.004 | inactive: -0.007 | inactive: 0.006 | inactive: 0.006 | inactive: -0.019 | inactive: -0.034 | inactive: 0.029 | inactive: 0.027 | inactive: 0.003 | inactive: 0.006 | inactive: -0.074 | inactive: -0.01 | inactive: 0.04
RPL6 (UniProt Q02878) | inactive: -0.008 | inactive: 0.014 | inactive: -0.004 | inactive: 0.004 | inactive: 0.009 | inactive: -0.052 | inactive: -0.023 | inactive: 0.003 | inactive: -0.026 | inactive: 0.047 | inactive: -0.016 | inactive: 0.003 | inactive: -0.01 | inactive: -0.024 | inactive: -0.009 | inactive: 0.007 | inactive: -0.004 | inactive: -0.023 | inactive: -0.015 | inactive: -0.003
RRS1 (UniProt Q15050) | inactive: -0.018 | inactive: -0.031 | inactive: -0.019 | inactive: -0.042 | inactive: 0.009 | inactive: -0.005 | inactive: 0.007 | inactive: 0.032 | inactive: 0.017 | inactive: 0.009 | inactive: -0.016 | inactive: 0.031 | inactive: 0.01 | inactive: -0.078 | inactive: -0.035 | inactive: 0.006 | inactive: -0.135 | inactive: 0.022 | inactive: -0.005 | inactive: 0.008
RTN3 (UniProt O95197) | inactive: -0.009 | inactive: 0.013 | inactive: 0.012 | inactive: -0.034 | inactive: -0.028 | inactive: 0.001 | inactive: -0.051 | inactive: -0.033 | inactive: 0.024 | inactive: -0.007 | inactive: -0.008 | inactive: -0.028 | inactive: 0.003 | inactive: 0.014 | inactive: 0.006 | inactive: 0.002 | inactive: -0.182 | inactive: 0.059 | inactive: 0.035 | inactive: -0.035
RPRD2 (UniProt Q5VT52) | inactive: -0.028 | inactive: 0.03 | inactive: 0.004 | inactive: -0.096 | inactive: 0.057 | inactive: 0.032 | inactive: 0 | inactive: 0 | inactive: 0.066 | inactive: 0.035 | inactive: 0.021 | inactive: -0.037 | inactive: 0.087 | inactive: 0.018 | inactive: -0.012 | inactive: -0.024 | inactive: -0.003 | inactive: 0.022 | inactive: -0.015 | inactive: -0.025
RPS6KB1 (UniProt P23443) | inactive: 0.024 | active: 0.355 | inactive: 0.026 | inactive: 0.007 | inactive: -0.027 | inactive: 0 | inactive: 0.01 | inactive: -0.029 | inactive: -0.01 | inactive: -0.001 | inactive: -0.052 | inactive: -0.001 | inactive: 0.068 | inactive: -0.109 | inactive: -0.041 | inactive: 0.078 | inactive: -0.155 | inactive: 0.185 | inactive: -0.022 | inactive: 0.074
RTCB (UniProt Q9Y3I0) | inactive: 0.015 | inactive: 0.022 | inactive: 0.015 | inactive: 0.024 | inactive: 0.007 | inactive: -0.011 | inactive: 0.013 | inactive: -0.056 | inactive: 0.017 | inactive: 0.04 | inactive: 0.003 | inactive: 0.018 | inactive: -0.023 | inactive: -0.027 | inactive: -0.028 | inactive: 0.028 | inactive: -0.049 | inactive: 0.029 | inactive: -0.009 | inactive: 0.016
RPLP0P6 (UniProt Q8NHW5) | inactive: 0.064 | inactive: -0.005 | inactive: -0.01 | inactive: -0.02 | inactive: -0.009 | inactive: -0.052 | inactive: -0.028 | inactive: 0.015 | inactive: 0.01 | inactive: -0.017 | inactive: -0.002 | inactive: 0.012 | inactive: -0.121 | inactive: 0.009 | inactive: -0.009 | inactive: -0.02 | inactive: -0.011 | inactive: 0.017 | inactive: -0.011 | inactive: -0.02
RPRD1B (UniProt Q9NQG5) | inactive: -0.017 | inactive: 0.026 | inactive: 0.04 | inactive: 0.07 | inactive: -0.011 | inactive: 0.043 | inactive: 0.006 | inactive: -0.055 | inactive: -0.023 | inactive: 0.005 | inactive: 0.009 | inactive: -0.013 | inactive: -0.039 | inactive: -0.009 | inactive: -0.001 | inactive: 0.044 | inactive: -0.022 | inactive: 0.017 | inactive: 0.023 | inactive: 0.011
RPLP1 (UniProt P05386) | inactive: 0.041 | inactive: -0.087 | inactive: 0.008 | inactive: -0.097 | inactive: 0.043 | inactive: -0.022 | inactive: 0.011 | inactive: 0.049 | inactive: 0.004 | inactive: 0.118 | inactive: 0.005 | inactive: 0.003 | inactive: 0.059 | inactive: -0.019 | inactive: 0.052 | inactive: -0.018 | inactive: 0.015 | inactive: 0.024 | inactive: 0.001 | inactive: -0.057
RSL1D1 (UniProt O76021) | inactive: -0.027 | inactive: -0.005 | inactive: -0.006 | inactive: -0.007 | inactive: 0 | inactive: -0.004 | inactive: -0.005 | inactive: -0.019 | inactive: 0.017 | inactive: 0.032 | inactive: -0.007 | inactive: -0.001 | inactive: -0.037 | inactive: -0.007 | inactive: 0.006 | inactive: -0.004 | inactive: -0.002 | inactive: -0.049 | inactive: -0.008 | inactive: -0.008

Record cards (already shown). Values in the order: log2 fold change (ibrutinib) | log2 fold change [1] | log2 fold change (ralimetinib) | log2 fold change [2] | log2 fold change [3] | log2 fold change [4] | log2 fold change [5] | log2 fold change [6] | log2 fold change [7] | log2 fold change [8] | log2 fold change (vemurafenib) | log2 fold change [9] | log2 fold change (barasertib) | log2 fold change [10] | log2 fold change (volasertib) | log2 fold change [11] | log2 fold change [12] | log2 fold change [13] | log2 fold change (saracatinib) | log2 fold change (sotrastaurin)
RPL9 (UniProt P32969) is listed with inactive: -0.018 | inactive: 0.007 | inactive: 0.027 | inactive: 0.007 | inactive: 0.035 | inactive: 0.01 | inactive: -0.013 | inactive: -0.008 | inactive: 0.01 | inactive: 0.017 | inactive: -0.011 | inactive: 0.007 | inactive: -0.027 | inactive: -0.005 | inactive: 0.003 | inactive: -0.039 | inactive: 0.028 | inactive: -0.055 | inactive: -0.001 | inactive: -0.049
RTN3 (UniProt O95197) is listed with inactive: -0.009 | inactive: 0.013 | inactive: 0.012 | inactive: -0.034 | inactive: -0.028 | inactive: 0.001 | inactive: -0.051 | inactive: -0.033 | inactive: 0.024 | inactive: -0.007 | inactive: -0.008 | inactive: -0.028 | inactive: 0.003 | inactive: 0.014 | inactive: 0.006 | inactive: 0.002 | inactive: -0.182 | inactive: 0.059 | inactive: 0.035 | inactive: -0.035

Source: the supplement of paper PMC10849652
